To fix the notation:
T1: S100A9-Flag (human (cDNA from MCF-10A–ER-Src cells)) (UniProt P06702)
T1 sequence: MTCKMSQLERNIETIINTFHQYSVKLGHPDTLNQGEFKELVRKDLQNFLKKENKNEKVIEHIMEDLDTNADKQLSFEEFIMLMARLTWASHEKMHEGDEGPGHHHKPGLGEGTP

By UniProt entry, the sequences of proteins in these tests, tags left out.
UniProt P40763: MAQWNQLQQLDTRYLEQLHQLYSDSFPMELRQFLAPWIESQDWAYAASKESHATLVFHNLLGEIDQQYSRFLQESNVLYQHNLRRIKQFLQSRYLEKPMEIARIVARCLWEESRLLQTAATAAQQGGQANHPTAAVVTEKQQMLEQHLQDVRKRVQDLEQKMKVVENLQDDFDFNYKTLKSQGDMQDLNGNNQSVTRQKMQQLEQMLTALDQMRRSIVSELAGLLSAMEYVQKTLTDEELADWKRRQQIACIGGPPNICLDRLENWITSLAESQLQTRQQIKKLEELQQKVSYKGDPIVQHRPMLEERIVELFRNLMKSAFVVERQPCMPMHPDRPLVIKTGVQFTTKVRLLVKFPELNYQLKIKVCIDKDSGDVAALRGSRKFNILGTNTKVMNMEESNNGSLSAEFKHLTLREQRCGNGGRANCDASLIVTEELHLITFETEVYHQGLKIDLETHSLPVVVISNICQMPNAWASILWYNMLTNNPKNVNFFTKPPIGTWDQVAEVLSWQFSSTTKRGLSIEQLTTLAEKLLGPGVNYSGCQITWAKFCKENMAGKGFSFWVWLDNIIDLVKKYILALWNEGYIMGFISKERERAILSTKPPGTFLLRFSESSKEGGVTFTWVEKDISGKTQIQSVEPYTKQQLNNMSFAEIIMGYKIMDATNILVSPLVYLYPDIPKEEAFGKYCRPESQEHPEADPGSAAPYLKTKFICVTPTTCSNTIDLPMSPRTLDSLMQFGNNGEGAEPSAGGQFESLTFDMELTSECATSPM
UniProt P01100: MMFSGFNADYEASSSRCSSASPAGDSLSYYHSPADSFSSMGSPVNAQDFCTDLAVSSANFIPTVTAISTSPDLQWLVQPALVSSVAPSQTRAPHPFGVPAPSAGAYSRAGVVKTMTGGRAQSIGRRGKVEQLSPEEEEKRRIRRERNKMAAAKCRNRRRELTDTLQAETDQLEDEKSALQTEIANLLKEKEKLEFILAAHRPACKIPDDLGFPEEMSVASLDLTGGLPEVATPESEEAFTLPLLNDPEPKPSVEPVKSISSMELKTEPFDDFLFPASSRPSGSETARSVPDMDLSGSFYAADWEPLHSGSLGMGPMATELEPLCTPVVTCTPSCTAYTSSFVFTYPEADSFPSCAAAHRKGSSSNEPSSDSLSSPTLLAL
UniProt O95863: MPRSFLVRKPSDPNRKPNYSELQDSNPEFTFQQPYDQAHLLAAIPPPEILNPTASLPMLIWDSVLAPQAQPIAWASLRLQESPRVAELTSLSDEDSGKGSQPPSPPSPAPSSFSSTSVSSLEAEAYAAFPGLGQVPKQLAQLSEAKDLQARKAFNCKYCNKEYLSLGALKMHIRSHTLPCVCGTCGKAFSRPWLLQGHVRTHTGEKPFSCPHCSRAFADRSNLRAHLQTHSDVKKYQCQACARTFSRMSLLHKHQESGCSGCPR

B1: CTCF (protein, UniProt P49711 1-727)
chain: MEGDAVEAIVEESETFIKGKERKTYQRRREGGQEEDACHLPQNQTDGGEVVQDVNSSVQMVMMEQLDPTLLQMKTEVMEGTVAPEAEAAVDDTQIITLQVVNMEEQPINIGELQLVQVPVPVTVPVATTSVEELQGAYENEVSKEGLAESEPMICHTLPLPEGFQVVKVGANGEVETLEQGELPPQEDPSWQKDPDYQPPAKKTKKTKKSKLRYTEEGKDVDVSVYDFEEEQQEGLLSEVNAEKVVGNMKPPKPTKIKKKGVKKTFQCELCSYTCPRRSNLDRHMKSHTDERPHKCHLCGRAFRTVTLLRNHLNTHTGTRPHKCPDCDMAFVTSGELVRHRRYKHTHEKPFKCSMCDYASVEVSKLKRHIRSHTGERPFQCSLCSYASRDTYKLKRHMRTHSGEKPYECYICHARFTQSGTMKMHILQKHTENVAKFHCPHCDTVIARKSDLGVHLRKQHSYIEQGKKCRYCDAVFHERYALIQHQKSHKNEKRFKCDQCDYACRQERHMIMHKRTHTGEKPYACSHCDKTFRQKQLLDMHFKRYHDPNFVPAAFVCSKCGKTFTRRNTMARHADNCAGPDGVEGENGGETKKSKRGRKRKMRSKKEDSSDSENAEPDLDDNEDEEEPAVEIEPEPEPQPVTPAPPPAKKRRGRPPGRTNQPKQNQPTAIIQVEDQNTGAIENIIVEVKKEPDAEPAEGEEEEAQPAATDAPNGDLTPEMILSMMDR

Results are given in words; binding and its absence hold for the method and conditions named. In cells and extracts the contact can be indirect. Some binding calls cover weakened binding; strength is not graded here. Tags and fused reporters may be left off the sequences shown.

In the test the target is T1, S100A9-Flag (human (cDNA from MCF-10A–ER-Src cells)). The test can be described thus: co-IP; Flag-tagged protein immunoprecipitated from nuclear extract of MCF-10A–ER-Src cells treated with EtOH or TAM; extract made in 420 mM NaCl buffer C, diluted to 100 mM NaCl, 0.4% NP-40, treated overnight with Benzonase (nucleic acids degraded); Western blot. On the technique in general: A western blot detects proteins with antibodies after separation by electrophoresis.
Take STAT3 (from UniProt P40763 1-770): the binding result is on record as “binds”.

As to FOS (from UniProt P01100 1-380), the binding result was “binds”. For the molecule SNAI1 (from UniProt O95863 1-264), the binding entry is listed as “no binding”. The value for B1 was “binds”.

The values above are taken from PMC7775746.
